Reference: patent US8841077B2, “Biomarkers for amyotrophic lateral sclerosis and methods using the same” (Massachusetts General Hospital, priority 2006, dated 2014)

assay: Disease progression: plasma of ALS subjects, matched-pairs T-test month 1 vs month 12 (Table 18); format: in vivo, human; conditions: mean plasma level, month 1 vs month 12 after screening; positive = increase as disease progressed; 37 ALS patients

First: Cn1cnc2c1c(=O)[nH]c(=O)n2C [Theobromine]
Second: CN(CC(=O)O)C(=N)N [Creatine]
The “% Change with disease progression” value of the first is higher: 2% for the first, −1% for the second.

Going from `CC(=O)c1cnccn1` [Acetylpyrazine] to `CCCCCCCC/C=C\CCCCCCCC(=O)O` [Oleic-Acid], the “% Change with disease progression” value rises from −4% to 31%.

First: CCC(O)C(=O)O (stereo not drawn) [2-hydroxybutyric acid]
Second: O=C1CCNC(=O)N1 [5-6-dihydrouracil]
The “% Change with disease progression” value of the first is higher: 11% for the first, 1% for the second.

Going from `C[S+]([O-])CC[C@H](N)C(=O)O` (stereo partly drawn) [methionine-sulfoxide] to `C[C@]12CC[C@H](OS(=O)(=O)[O-])CC1=CC[C@@H]1[C@@H]2CC[C@]2(C)C(=O)CC[C@@H]12.O.[Na+]`, the “% Change with disease progression” value rises from −19% to −5%.

First: N=C(N)NCCC[C@H](N)C(=O)O [Arginine]
Second: n-dodecanoate
The “% Change with disease progression” value of the first is higher: −12% for the first, −22% for the second.

First: O=c1[nH]cnc2nc[nH]c12 [Hypoxanthine]
Second: O=C(O)CCCC[C@@H]1SC[C@@H]2NC(=O)N[C@@H]21 [Biotin]
The “% Change with disease progression” value of the first is higher: 73% for the first, −32% for the second.

Going from `N[C@@H](CCC(=O)N[C@@H](Cc1ccccc1)C(=O)O)C(=O)O` to Lactate, the “% Change with disease progression” value rises from −22% to 2%.

First: CC(=O)O[C@H](CC(=O)[O-])C[N+](C)(C)C.Cl [O-acetyl-L-carnitine-hydrochloride]
Second: CC(CCC(=O)NCC(=O)O)C1CCC2C3C(O)CC4CC(O)CCC4(C)C3CCC12C (stereo not drawn) [glycochenodeoxycholic acid]
The “% Change with disease progression” value of the first is higher: 39% for the first, −33% for the second.

Going from `OC[C@H]1OC[C@H](O)[C@@H](O)[C@@H]1O` [1-5-anhydro-D-glucitol] to `O=C(O)[C@H](O)COP(=O)(O)O` [3-phospho-d-glycerate], the “% Change with disease progression” value falls from −8% to −19%.

Compared with `O=C(O)CN(CCO)CCO` [Bicine], `OC[C@@H](O)[C@@H](O)CO` [meso-erythritol] is lower in “% Change with disease progression” value: 17% for the first, −7% for the second.

Compared with `O=C(O)C1(O)C[C@@H](O)C(O)[C@H](O)C1` (stereo partly drawn) [D-quinic acid], `N[C@@H](CCC(=O)N[C@@H](Cc1ccc(O)cc1)C(=O)O)C(=O)O` [gamma-L-glutamyl-L-tyrosine] is higher in “% Change with disease progression” value: −43% for the first, −22% for the second.

First: Cn1cncc1C[C@H](N)C(=O)O [3-methyl-L-histidine]
Second: CCCCCCCC/C=C\CCCCCCCC(=O)OCC(O)CO (racemic)
The “% Change with disease progression” value of the first is lower: −15% for the first, −13% for the second.

Compared with `C[N+](C)(C)CCCC[C@H](N)C(=O)[O-]` [N-6-trimethyl-l-lysine], `CCCCCCCCCCCCCCCCC(=O)O` [heptadecanoic acid] is higher in “% Change with disease progression” value: −22% for the first, −1% for the second.

First: O=Cc1ccc(O)cc1 [p-hydroxybenzaldehyde]
Second: O=C(O)C(=O)O [oxalic acid]
The “% Change with disease progression” value of the first is higher: 0% for the first, −6% for the second.

Going from `C[C@]12CCC(=O)C=C1CC[C@@H]1[C@@H]2[C@@H](O)C[C@]2(C=O)[C@@H](C(=O)CO)CC[C@@H]12` [Aldosterone] to `Cc1cc2nc3c(=O)[nH]c(=O)nc-3n(C[C@H](O)[C@H](O)[C@H](O)CO)c2cc1C` [Riboflavine], the “% Change with disease progression” value falls from 10% to −24%.

assay: Metabolomic profiling (GC-MS/LC-MS) of CSF samples, ALS subjects vs control subjects (Example 1; Tables 3, 4); format: in vivo, human; conditions: CSF; ALS mean as compared to control mean; T-tests of ALS vs. Controls

For `O=C(O)C(=O)O` [oxalic acid], the “% change in ALS” value was 8%.

same assay, conditions: CSF; mean in ALS samples vs control samples; T-tests

For `O=C(O)C(=O)O` [oxalic acid], the “Increase (+) or Decrease (−) in ALS” value was “+”.

assay: Disease progression: plasma of 40 ALS subjects, random coefficient regression analysis over time (Table 16); format: in vivo, human; conditions: common slope of plasma metabolite level over month (0, 1, 6, 12), positive = level increased over time, negative = decreased

First: OC[C@H]1OC[C@H](O)[C@@H](O)[C@@H]1O [1,5-anhydro-D-glucitol]
Second: Cn1cnc2c1c(=O)[nH]c(=O)n2C [Theobromine]
The SLOPE of the first is lower: −0.005 for the first, 0.011 for the second.

Compared with `CN(CC(=O)O)C(=N)N` [Creatine], `CC(=O)c1cnccn1` [Acetylpyrazine] is higher in SLOPE: −0.011 for the first, −0.002 for the second.

Going from `CCCCCCCC/C=C\CCCCCCCC(=O)O` [Oleic-Acid] to `CCC(O)C(=O)O` (stereo not drawn) [2-hydroxybutyric acid], the SLOPE falls from 0.019 to 0.005.

Compared with `O=C1CCNC(=O)N1` [5-6-dihydrouracil], `C[S+]([O-])CC[C@H](N)C(=O)O` (stereo partly drawn) [methionine-sulfoxide] is lower in SLOPE: 0.002 for the first, −0.023 for the second.

Going from `C[C@]12CC[C@H](OS(=O)(=O)[O-])CC1=CC[C@@H]1[C@@H]2CC[C@]2(C)C(=O)CC[C@@H]12.O.[Na+]` to `N=C(N)NCCC[C@H](N)C(=O)O` [Arginine], the SLOPE falls from −0.005 to −0.019.

First: n-dodecanoate
Second: O=c1[nH]cnc2nc[nH]c12 [Hypoxanthine]
The SLOPE of the first is lower: −0.018 for the first, 0.141 for the second.

First: O=C(O)CCCC[C@@H]1SC[C@@H]2NC(=O)N[C@@H]21 [Biotin]
Second: N[C@@H](CCC(=O)N[C@@H](Cc1ccccc1)C(=O)O)C(=O)O
The SLOPE of the first is lower: −0.028 for the first, −0.017 for the second.

Going from Lactate to `O=C[C@H](O)[C@H](O)CO` [Eythrose], the SLOPE falls from 0.018 to −0.010.

Going from `CC(=O)O[C@H](CC(=O)[O-])C[N+](C)(C)C.Cl` [O-acetyl-L-carnitine-hydrochloride] to `CC(CCC(=O)NCC(=O)O)C1CCC2C3C(O)CC4CC(O)CCC4(C)C3CCC12C` (stereo not drawn) [glycochenodeoxycholic acid], the SLOPE falls from 0.027 to −0.017.

Compared with `O=C(O)[C@H](O)COP(=O)(O)O` [3-phospho-d-glycerate], `O=C(O)CN(CCO)CCO` [Bicine] is higher in SLOPE: −0.009 for the first, 0.008 for the second.

First: OC[C@@H](O)[C@@H](O)CO [meso-erythritol]
Second: O=C(O)C1(O)C[C@@H](O)C(O)[C@H](O)C1 (stereo partly drawn) [D-quinic acid]
The SLOPE of the first is higher: −0.002 for the first, −0.045 for the second.

First: N[C@@H](CCC(=O)N[C@@H](Cc1ccc(O)cc1)C(=O)O)C(=O)O [gamma-L-glutamyl-L-tyrosine]
Second: Cn1cncc1C[C@H](N)C(=O)O [3-methyl-L-histidine]
The SLOPE of the first is lower: −0.019 for the first, −0.013 for the second.

Going from `CCCCCCCC/C=C\CCCCCCCC(=O)OCC(O)CO` (racemic) to `C[N+](C)(C)CCCC[C@H](N)C(=O)[O-]` [N-6-trimethyl-l-lysine], the SLOPE falls from −0.018 to −0.022.

Going from `CCCCCCCCCCCCCCCCC(=O)O` [heptadecanoic acid] to `O=Cc1ccc(O)cc1` [p-hydroxybenzaldehyde], the SLOPE rises from −0.005 to −0.002.

Going from `O=C(O)C(=O)O` [oxalic acid] to `C[C@]12CCC(=O)C=C1CC[C@@H]1[C@@H]2[C@@H](O)C[C@]2(C=O)[C@@H](C(=O)CO)CC[C@@H]12` [Aldosterone], the SLOPE rises from −0.004 to 0.000.

For `Cc1cc2nc3c(=O)[nH]c(=O)nc-3n(C[C@H](O)[C@H](O)[C@H](O)CO)c2cc1C` [Riboflavine], the SLOPE was −0.024.
